Reference: patent US20230257472A1
These are yes or no findings as the source states them, for the method shown. Some results given as binding are weak or reduced against the parent protein; the word gives no strength.

Columns and labels:
[1] = target: T1, human CD70 on cells (CD70-positive 786-O cells, Raji cells, CHO-S cells expressing human full-length CD70, U266 cells) (human) (UniProt P32970); assay: flow cytometry on CD70-positive 786-O cells, Alexa Fluor 488 goat anti-human (H+L) detection
T1 sequence (looked up): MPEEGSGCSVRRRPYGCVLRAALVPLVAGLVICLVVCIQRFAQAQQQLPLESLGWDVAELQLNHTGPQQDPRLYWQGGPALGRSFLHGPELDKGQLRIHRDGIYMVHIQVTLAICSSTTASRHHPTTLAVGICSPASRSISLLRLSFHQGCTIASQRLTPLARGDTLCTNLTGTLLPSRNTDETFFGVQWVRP

[2] = target: T1, human CD70 on cells (CD70-positive 786-O cells, Raji cells, CHO-S cells expressing human full-length CD70, U266 cells) (human); assay: flow cytometry on CD70-positive Raji cells, Alexa Fluor 488 goat anti-human (H+L) detection

binding [1]: binds | binding [2]: binds
B1: 41D12 (afuc) (antibody, human IgG1, lambda, V domains shown)
VH: EVQLVESGGGLVQPGGSLRLSCAASGFTFSVYYMNWVRQAPGKGLEWVSDINNEGGTTYYADSVKGRFTISRDNSKNSLYLQMNSLRAEDTAVYYCARDAGYSNHVPIFDSWGQGTLVTVSS
VL: QAVVTQEPSLTVSPGGTVTLTCGLKSGSVTSDNFPTWYQQTPGQAPRLLIYNTNTRHSGVPDRFSGSILGNKAALTITGAQADDEAEYFCALFISNPSVEFGGGTQLTVLG
modifications: non-fucosylated (heavy chain not modified by fucosylation)
